{"source": "the supplement of paper PMC10735217", "system": "HEK293A TEAD-LUC reporter", "assay": "TEAD-luciferase reporter activity (YAP activation), robust Z score vs plate; higher = stronger YAP/TEAD activation", "conditions": "24 h", "note": "The other results are listed elsewhere or left out. This data set is noisy: repeats of one test often differ as much as different tests do.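 In a drug-repurposing library screen, luminescence reads luciferase driven by eight TEAD-binding elements, stably integrated into human kidney-derived cells. Compounds scoring over five robust Z scores above the plate mean are called hits.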", "data": [{"smiles": "CC1OC(OC2CCC3(C=O)[C@H]4CCC5(C)C(C6=CC(=O)OC6)CCC5(O)[C@@H]4CCC3(O)C2)C(O)C(O)C1O", "note": "(some centres not stated)", "values": [{"measurement": "TEAD-luciferase reporter activity", "setting": "compound concentration: 200 nM", "result": "active: 25.9"}, {"measurement": "TEAD-luciferase reporter activity", "setting": "compound concentration: 2 uM", "result": "inactive: -2.47"}, {"measurement": "TEAD-luciferase reporter activity", "setting": "compound concentration: 10 uM", "result": "inactive: 1.64"}]}, {"smiles": "CC1(C)[C@H]2O[C@H]2[C@H]2[C@](C)(O)[C@@H]3CC[C@@H]4[C@@H](O)[C@@]3(C[C@@H](O)[C@@]21O)C[C@@]4(C)O", "note": "[Rhomotoxin]", "values": [{"measurement": "TEAD-luciferase reporter activity", "setting": "compound concentration: 200 nM", "result": "inactive: -2.02"}, {"measurement": "TEAD-luciferase reporter activity", "setting": "compound concentration: 2 uM", "result": "inactive: -0.412"}, {"measurement": "TEAD-luciferase reporter activity", "setting": "compound concentration: 10 uM", "result": "inactive: -0.961"}]}, {"smiles": "Oc1ncc(N(CCCl)CCCl)c(O)n1", "note": "[Uracil mustard]", "values": [{"measurement": "TEAD-luciferase reporter activity", "setting": "compound concentration: 200 nM", "result": "inactive: -0.476"}, {"measurement": "TEAD-luciferase reporter activity", "setting": "compound concentration: 2 uM", "result": "inactive: 1.37"}, {"measurement": "TEAD-luciferase reporter activity", "setting": "compound concentration: 10 uM", "result": "inactive: -1.21"}]}, {"smiles": "NC1=N[C@H](O)[C@H]2[C@H]3OC4(O)O[C@@H](C(O)[C@@]2(N1)[C@@H]4O)[C@]3(O)CO", "note": "(some centres not stated) [Tetrodotoxin]", "values": [{"measurement": "TEAD-luciferase reporter activity", "setting": "compound concentration: 200 nM", "result": "inactive: -0.428"}, {"measurement": "TEAD-luciferase reporter activity", "setting": "compound concentration: 2 uM", "result": "inactive: -0.56"}, {"measurement": "TEAD-luciferase reporter activity", "setting": "compound concentration: 10 uM", "result": "inactive: 0.218"}]}]}
